# Some of the results follow.
# Target: T1, OsSMF1 (Oryza sativa, UniProt Q6ZLB0 1-436)
# T1 sequence: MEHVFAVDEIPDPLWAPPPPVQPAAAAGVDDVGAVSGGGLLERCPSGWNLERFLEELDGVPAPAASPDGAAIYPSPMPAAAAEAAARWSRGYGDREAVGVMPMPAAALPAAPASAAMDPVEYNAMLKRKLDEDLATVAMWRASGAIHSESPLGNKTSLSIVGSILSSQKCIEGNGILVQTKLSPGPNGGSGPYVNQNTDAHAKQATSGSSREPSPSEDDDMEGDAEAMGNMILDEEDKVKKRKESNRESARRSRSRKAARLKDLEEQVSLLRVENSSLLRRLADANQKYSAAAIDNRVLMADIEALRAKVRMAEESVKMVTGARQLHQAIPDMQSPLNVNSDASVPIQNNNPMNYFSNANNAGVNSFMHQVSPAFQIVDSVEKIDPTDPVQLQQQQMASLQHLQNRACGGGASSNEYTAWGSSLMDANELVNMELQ
# Experiment: protein-binding microarray (RPBM); PBS, 2% BSA, 51.3 ng/ul salmon testes DNA, 50 uM zinc acetate, 200 nM TF, 25 C, 1 h; high values mean tight binding
# Conditions: protein: recombinant; tags: N-terminal polyhistidine and DsRed monomer fusion (pET32a); chain copies: 2; label: CyDye5-dUTP incorporated in the synthesized complementary strand; 3' TTTTT single-stranded linker to array surface; dsDNA, one strand shown
# Procedure, shortened: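 The binding signal for each feature is its fluorescence intensity in arbitrary units. An Axon 4000B scanner was used to read a custom Agilent array that had been made double-stranded with Cy5-dUTP primer extension, blocked with 2% BSA, incubated at 25 °C for 1 h with 200 nM protein in PBS, 2% BSA, salmon testes DNA and 50 µM zinc acetate, and washed. The protein was an N-terminal polyhistidine–DsRed transcription factor fusion from E. coli BL21-CodonPlus, purified on Ni–NTA.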
row,Sequence,binding signal
1,ATCAGTACCGTCCACGCAGCCGTGACAGCAACAGAAAGACCGGAGTCACCTAGTGCAG,3200 fluorescence intensity (a.u.)
2,CAATCATCAGCCACGTCCGCCGCCGCTTCAGCTGGATCGGCGGAGTCACCTAGTGCAG,4290 fluorescence intensity (a.u.)
3,AATCATCGGCCAAAATTACCCGCGTGGCATTAGAGTCATGCGGAGTCACCTAGTGCAG,5590 fluorescence intensity (a.u.)
4,CCTTATTTCTTGCTCCTGACTCAATCGCCTCCACCGACCACGGAGTCACCTAGTGCAG,5210 fluorescence intensity (a.u.)
5,AAGCTCACACAAATCTGATCTGTCACCACGGATAAAGATCCGGAGTCACCTAGTGCAG,3300 fluorescence intensity (a.u.)
6,TTCCTCCCGGGTTTCGAGGGCGTCAGCAACCCGGGCGCCGCGGAGTCACCTAGTGCAG,3380 fluorescence intensity (a.u.)
7,AAGTATCTGGCGTGGCATACCAGTATTGCCATGCTAGCTACGGAGTCACCTAGTGCAG,10300 fluorescence intensity (a.u.)
8,ACCACGCGACGCGCTCGCTCGCTCTCTTCCCGCACGTGTTCGGAGTCACCTAGTGCAG,3470 fluorescence intensity (a.u.)
9,TTGTGTGGTGTGGTTGAGCTGAGGTGTAGTTAGGACAGTGCGGAGTCACCTAGTGCAG,3210 fluorescence intensity (a.u.)
10,AAGGAGTAGCTTTGAAATTCAACTTTCAGATACACGTCAACGGAGTCACCTAGTGCAG,4600 fluorescence intensity (a.u.)
11,AGTATTGAATATGACACGTCCTAGGACTACTAATCTGGACCGGAGTCACCTAGTGCAG,6340 fluorescence intensity (a.u.)
12,CGCAAAACGCCAGCACAGTCGCAGTACAAATAAAGCTTTACGGAGTCACCTAGTGCAG,3980 fluorescence intensity (a.u.)
13,CCAGCACGGCACGGCACGCCGACGGCACGGCCCACTAGGGCGGAGTCACCTAGTGCAG,3940 fluorescence intensity (a.u.)
14,ATGATGGTGGTGACGACTTAGCTATCTTGAAACCTGAAACCGGAGTCACCTAGTGCAG,3220 fluorescence intensity (a.u.)
15,TTTCTTCGTAGTGTAGATGCAAAAGGCATTAAGTGTTTGCCGGAGTCACCTAGTGCAG,3280 fluorescence intensity (a.u.)
16,GAAATTCATGATGTGTCAACCTAACCCTAATAGGCTACTTCGGAGTCACCTAGTGCAG,4780 fluorescence intensity (a.u.)
17,CTAGAATGAGTGTTATGGCAGAGTGGTAGATGCTTGAAAACGGAGTCACCTAGTGCAG,29600 fluorescence intensity (a.u.)
18,CAACAAGCGGGTGGCTGGAAGGTGTGTGTGTGAGAGAGAGCGGAGTCACCTAGTGCAG,3180 fluorescence intensity (a.u.)
19,ACAATGTGTTTATATATCTCCCACGTGGATTAATTGCTACCGGAGTCACCTAGTGCAG,5540 fluorescence intensity (a.u.)
20,TAGTTGTGACACGTAGAAGTTGAATTTTAACTTTTATGTTCGGAGTCACCTAGTGCAG,4370 fluorescence intensity (a.u.)
21,CATACTCGATCTTTATCGTCTCGAAAGTCGGAACACCAGTCGGAGTCACCTAGTGCAG,34700 fluorescence intensity (a.u.)

row,Sequence,binding signal
1,GTAGCTGACCCATGCTGTGAGCAGCGTCATGCCTGACGCGCGGAGTCACCTAGTGCAG,4160 fluorescence intensity (a.u.)
2,TTGAGATGTGTGCTCAGACAGTCACAACACCACGTTGACCCGGAGTCACCTAGTGCAG,3730 fluorescence intensity (a.u.)
3,TGCTCCGCGCGTGCGGCGCTAGGGTTTCCTTCCTTCCTTCCGGAGTCACCTAGTGCAG,3220 fluorescence intensity (a.u.)
4,GTCCGCTGTTGAGCTTGTGCTACACGTGGCATGGTCCTCCCGGAGTCACCTAGTGCAG,12700 fluorescence intensity (a.u.)
5,AATCGTGGATGGGGAATCGGTGACGCGCGGGTGGGGCGACCGGAGTCACCTAGTGCAG,4090 fluorescence intensity (a.u.)
6,ACAAACGAACAAGACATGAAGCCGATGAGTCCAGCAGAGCCGGAGTCACCTAGTGCAG,3170 fluorescence intensity (a.u.)
7,ATGGCTCTATCATTGACGGTGACGACTGCATATGTTAAGGCGGAGTCACCTAGTGCAG,4460 fluorescence intensity (a.u.)
8,CTACTACTGGTAAAGTACGCACGTTCTGCACGTGTCACATCGGAGTCACCTAGTGCAG,9280 fluorescence intensity (a.u.)
9,GCAACACCAACGACGCAGCAATCTCTCTTCCATCTCTCTCCGGAGTCACCTAGTGCAG,3170 fluorescence intensity (a.u.)
10,CGGGATTCGTGAGGAGGAGGAAGACCTTTTCCCTTCGCGTCGGAGTCACCTAGTGCAG,5370 fluorescence intensity (a.u.)
11,GCCATTGTATGGCGGTACCGGATTGGGGTGTGACACGGGTCGGAGTCACCTAGTGCAG,3480 fluorescence intensity (a.u.)
12,GAAGGAGGAGTCACCGTGCGTTGTTACCACTCCACTGCTCCGGAGTCACCTAGTGCAG,4040 fluorescence intensity (a.u.)
13,CATCTTACTGGTCAGATCCTTGGTCATGCATATCTGTTCCCGGAGTCACCTAGTGCAG,3650 fluorescence intensity (a.u.)
14,GAGGCCGCGTCCCGCGTGCGTGCGTCTGTCGCGGTCGCGGCGGAGTCACCTAGTGCAG,4170 fluorescence intensity (a.u.)
15,TCTCTCTCTCGAGCAGAGCAGAGCACGCCGTCATCCTCGTCGGAGTCACCTAGTGCAG,3140 fluorescence intensity (a.u.)
16,CAAACTCCAGTGTCTCCCCACTCCATAGTGACACTGCGCCCGGAGTCACCTAGTGCAG,4000 fluorescence intensity (a.u.)
17,GCGGTTCTTCATCGACAGCCACGTGGCGAGCCCGGAGGCGCGGAGTCACCTAGTGCAG,11900 fluorescence intensity (a.u.)
18,CCAAACCCTATGCCGCTGAATGCTGATGCTGTTGATGCATCGGAGTCACCTAGTGCAG,4400 fluorescence intensity (a.u.)
19,ACACTCTACACTCCCACTACTCCGAACACGTGTCGGCCTCCGGAGTCACCTAGTGCAG,11700 fluorescence intensity (a.u.)
20,ACGTCTCCTCGTCACCACTCGCCACAAGTCCACCGCAGCACGGAGTCACCTAGTGCAG,5360 fluorescence intensity (a.u.)
21,TACTACAAATCAAAATGCAAGCATATCCAATCATCACCTCCGGAGTCACCTAGTGCAG,3290 fluorescence intensity (a.u.)

# Taken from above.
# binding signal, ACAATGTGTTTATATATCTCCCACGTGGATTAATTGCTACCGGAGTCACCTAGTGCAG reads 5540 fluorescence intensity (a.u.)
# binding signal, CATCTTACTGGTCAGATCCTTGGTCATGCATATCTGTTCCCGGAGTCACCTAGTGCAG reads 3650 fluorescence intensity (a.u.)
# binding signal, GCAACACCAACGACGCAGCAATCTCTCTTCCATCTCTCTCCGGAGTCACCTAGTGCAG reads 3170 fluorescence intensity (a.u.)
# binding signal, ACACTCTACACTCCCACTACTCCGAACACGTGTCGGCCTCCGGAGTCACCTAGTGCAG reads 11700 fluorescence intensity (a.u.)
